From PubChem BioAssay AID2685 (National Center for Advancing Translational Sciences (NCATS), 2010)
The other results are listed elsewhere or left out. The main result of the screen is listed elsewhere. These columns were measured beside it and carry no call. Compounds called inactive in the main read-out are mostly missing here. Potencies come from curve fits of mixed quality, noted in brackets.

Test: qHTS Assay for Lipid Storage Modulators in Drosophila S3 Cells;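 for cell number change: cells counted by Cell Tracker Red CMTPX staining in the red channel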
Details: BODIPY lipid droplet fluorescence, 18-24 h; for cell number change: measured here: cell count max response, cells fed with added oleic acid
Method in brief: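 Drosophila S3 cells got compounds at several concentrations plus oleic acid (400 uM solution). Laser-scanning cytometry with 488 nm excitation read lipid droplets at 500-530 nm and cells at 575-640 nm. Percent activity was relative to 20 uM Triacsin C.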

[1] = measured here: lipid fluorescence (Fed channel) AC50, cells fed with added oleic acid
[2] = measured here: cell number channel AC50, cells fed with added oleic acid

Row | Compound | cell number change | AC50 [1] | AC50 [2]
1 | CC(=O)/C=C(\C)Nc1ccccc1O | 5.47% | – | –
2 | CC1CCN(CC(=O)Nc2nccs2)CC1 | 6.87% | 0.461 µM [rising, single point] | –
3 | CC(OC(=O)CNC(=O)C12CC3CC(CC(C3)C1)C2)C(=O)Nc1ccc(N2CCOCC2)cc1 (stereo not drawn) | -16.1% | 32.6 µM [falling, partial curve, poor fit] | –
4 | O=C(Nc1ccc2c(c1)OCO2)C1CCN(C(=O)c2ccc(Cl)cc2)CC1 | 11.6% | 0.103 µM [rising, partial curve, poor fit] | –
5 | Cc1cccc(Nc2c3c(nc4ccccc24)CCC3)c1 | -14.2% | 8.2 µM [falling, partial curve, poor fit] | –
6 | CCCCNC(=O)Cn1cnc2c(cnn2-c2ccc(C)cc2)c1=O | 4.14% | 0.651 µM [falling, full curve] | –
7 | Cn1nnnc1SCC(=O)Nc1ccccc1C(=O)NC1CC1 | 52.4% | 1.16 µM [rising, full curve] | 0.651 µM [rising, full curve]
8 | CC(=O)N1N=C(c2cccs2)CC1c1cccc([N+](=O)[O-])c1 (stereo not drawn) | 8.14% | – | –
9 | CCCN(CCC)CCCNC(=O)c1cc2c(=O)n(CC)c3ccccc3c2s1 | 22.1% | 0.146 µM [rising, full curve, poor fit] | –
10 | CCOc1ccc(CCNS(=O)(=O)c2ccc3c(c2)NC(=O)CC(=O)N3)cc1OCC | 11.9% | – | –
11 | N#CC1(C#N)C(c2ccccc2)OC23CCCCC2C1(C#N)C(=N)O3 (stereo not drawn) | – | – | 0.0651 µM [rising, full curve, poor fit]
12 | CNC(=O)c1c(NC(=O)c2ccco2)sc2c1CCCC2 | -27% | 29.1 µM [falling, partial curve, poor fit] | –
13 | COc1cc(OC)c(S(=O)(=O)Nc2ccc(C(=O)O)cc2)cc1S(=O)(=O)Nc1ccc(C(=O)O)cc1 | 13.4% | 7.31 µM [falling, partial curve] | –
14 | CCOC(=O)C1CCN(C(=O)C(C)c2ccc([N+](=O)[O-])cc2)CC1 (stereo not drawn) | – | 4.11 µM [rising, single point] | –
15 | Cc1ccccc1-n1nc(C)c(N=O)c1N | -3.75% | – | –
16 | Cc1ccc(Nc2cc(=O)[nH]c(=O)[nH]2)cc1C | -11.4% | 3.66 µM [falling, full curve, poor fit] | –
17 | NC(=S)NNc1cc(Cl)cc(Cl)c1 | -57.2% | – | 29.1 µM [falling, partial curve, poor fit]
18 | O=S(=O)(c1ccccc1)N1N=C(c2cccs2)CC1c1ccc(Br)cc1 (stereo not drawn) | 5.46% | 6.51 µM [rising, full curve, poor fit] | –
19 | CC(Sc1nc(-c2ccco2)nc2c1c(=O)n(C)c(=O)n2C)C(=O)O (stereo not drawn) | 23.3% | – | –
20 | Cc1ccc[n+](C(C)C(=O)c2ccc(-c3ccccc3)cc2)c1 (stereo not drawn) | -27.5% | 29.1 µM [falling, single point] | –
21 | COc1ccc(NC(=O)N2CCc3ccccc3C2)cc1OC | 43.3% | 29.1 µM [rising, single point] | 5.17 µM [rising, full curve]

Some of the entries above in another layout.
Row	Compound	cell number change	AC50 [1]	AC50 [2]
1	CC(=O)/C=C(\C)Nc1ccccc1O	5.47%	–	–
3	CC(OC(=O)CNC(=O)C12CC3CC(CC(C3)C1)C2)C(=O)Nc1ccc(N2CCOCC2)cc1 (stereo not drawn)	-16.1%	32.6 µM [falling, partial curve, poor fit]	–
5	Cc1cccc(Nc2c3c(nc4ccccc24)CCC3)c1	-14.2%	8.2 µM [falling, partial curve, poor fit]	–
6	CCCCNC(=O)Cn1cnc2c(cnn2-c2ccc(C)cc2)c1=O	4.14%	0.651 µM [falling, full curve]	–
9	CCCN(CCC)CCCNC(=O)c1cc2c(=O)n(CC)c3ccccc3c2s1	22.1%	0.146 µM [rising, full curve, poor fit]	–
10	CCOc1ccc(CCNS(=O)(=O)c2ccc3c(c2)NC(=O)CC(=O)N3)cc1OCC	11.9%	–	–
11	N#CC1(C#N)C(c2ccccc2)OC23CCCCC2C1(C#N)C(=N)O3 (stereo not drawn)	–	–	0.0651 µM [rising, full curve, poor fit]
12	CNC(=O)c1c(NC(=O)c2ccco2)sc2c1CCCC2	-27%	29.1 µM [falling, partial curve, poor fit]	–
13	COc1cc(OC)c(S(=O)(=O)Nc2ccc(C(=O)O)cc2)cc1S(=O)(=O)Nc1ccc(C(=O)O)cc1	13.4%	7.31 µM [falling, partial curve]	–
14	CCOC(=O)C1CCN(C(=O)C(C)c2ccc([N+](=O)[O-])cc2)CC1 (stereo not drawn)	–	4.11 µM [rising, single point]	–
16	Cc1ccc(Nc2cc(=O)[nH]c(=O)[nH]2)cc1C	-11.4%	3.66 µM [falling, full curve, poor fit]	–
18	O=S(=O)(c1ccccc1)N1N=C(c2cccs2)CC1c1ccc(Br)cc1 (stereo not drawn)	5.46%	6.51 µM [rising, full curve, poor fit]	–
19	CC(Sc1nc(-c2ccco2)nc2c1c(=O)n(C)c(=O)n2C)C(=O)O (stereo not drawn)	23.3%	–	–
21	COc1ccc(NC(=O)N2CCc3ccccc3C2)cc1OC	43.3%	29.1 µM [rising, single point]	5.17 µM [rising, full curve]

(continued)

Row | Compound | cell number change | AC50 [1] | AC50 [2]
22 | Cc1cc(N/N=C/c2ccc(O)cc2O)nc(-n2nc(C)cc2C)n1 | -44.6% | 2.06 µM [rising, partial curve] | 29.1 µM [falling, single point]
23 | Cn1c2ccccc2c2cnn(CC(=O)O)c(=O)c21 | 0.643% | 0.00461 µM [falling, full curve, poor fit] | –
24 | CN1C(=O)/C(=C/c2ccc(C(=O)Nc3ccc(O)cc3C(=O)O)cc2)SC1=S | 19.1% | 6.51 µM [falling, single point] | 6.51 µM [falling, single point]
25 | Cc1noc(C)c1CSCC(=O)Nc1ccc(S(=O)(=O)C(F)F)cc1 | 2.62% | 18.4 µM [falling, single point] | –
26 | COc1ccc(C2NC(=S)N(c3ccccc3)C(C)=C2C(=O)Nc2ccccc2)cc1 (stereo not drawn) | 0.0314% | 29.1 µM [rising, single point] | –
27 | CCN(CC(=O)Nc1ccc(OC)cc1)C(=O)c1oc2c(Cl)cccc2c1C | 15.5% | 9.2 µM [rising, partial curve, poor fit] | –
28 | COC(=O)CN(c1ccccc1)S(=O)(=O)c1ccccc1 | 32.1% | 29.1 µM [rising, single point] | 23.1 µM [rising, single point]
29 | CC1(c2ccccc2)NC(=O)N(CC(=O)N(CC(=O)Nc2ccccc2C(F)(F)F)Cc2ccco2)C1=O (stereo not drawn) | -7.8% | 29.1 µM [rising, single point] | 1.3 µM [falling, partial curve]
30 | Nc1ccccc1C#CC(=O)c1ccccc1 | -57.6% | 16.4 µM [falling, partial curve] | 29.1 µM [falling, single point]
31 | O=C(CCC(=O)Nc1ccccc1Cl)NNC(=O)Nc1cccc([N+](=O)[O-])c1 | 11.9% | 0.116 µM [rising, full curve, poor fit] | –
32 | CNc1snc(C)c1C(=O)OC(C)C(=O)NCc1ccccc1 (stereo not drawn) | -22.9% | 5.8 µM [falling, single point] | –
33 | CCc1nc(C)c(C(=O)N2CCCC(C(=O)Nc3cccc(-c4cccc(C)c4)c3)C2)o1 (stereo not drawn) | -39% | 4.11 µM [falling, single point] | 0.366 µM [falling, full curve]
34 | CCOC(=O)N1CCN(C(=O)c2ccc3nc(N4CCC(C)CC4)sc3c2)CC1 | -4.31% | – | –
35 | COc1cc(-c2nc(C(F)(F)F)c(OC)o2)cc(OC)c1OC | -7.3% | – | –
36 | CCC(=O)NCc1ccc2[nH]c(C)cc2c1 | 27.4% | 5.8 µM [rising, full curve, poor fit] | –
37 | COc1ccc(C(=O)CSc2nnc(-c3ccco3)n2C)cc1 | 1.1% | 0.058 µM [falling, full curve] | –
38 | CC/C(O)=C1\C(=O)CCCC1=NCCc1c(C)[nH]c2ccc(C)cc12 | 2.72% | – | 0.103 µM [rising, full curve]
39 | NC(N)=NC1=NC(=O)/C(=C/c2ccccc2-n2cccn2)S1 | 8.05% | 0.82 µM [falling, full curve, poor fit] | –
40 | O=C(CSc1nnnn1C1CC2CCC1C2)Nc1ccnc2ccccc12 (stereo not drawn) | -86.5% | 18.4 µM [falling, partial curve] | –
41 | COc1cc(-c2nc3ccccc3nc2-c2ccc(O)c(OC)c2)ccc1O | -7.09% | 23.1 µM [falling, single point] | –
42 | COc1ccccc1NC(=O)C1Cc2ccccc2CN1C(=O)c1ccco1 (stereo not drawn) | 10.8% | – | –

Row | Compound | cell number change | AC50 [1] | AC50 [2]
43 | O=C(NC1CCCCC1)c1cccc(N2C(=O)CCC2=O)c1 | 139% | 0.651 µM [rising, full curve] | 23.1 µM [rising, partial curve]
44 | O=C(Nc1ccccc1C(=O)OCn1nnc2ccccc2c1=O)c1ccco1 | -24.3% | 0.651 µM [rising, full curve] | –
45 | CCN1CCN(c2ccc(N3CCN(C(=O)c4ccc(Br)o4)CC3)nn2)CC1 | 19.3% | – | –
46 | O=C1NC2(CCCC2)C(=O)N1CC(=O)N(Cc1ccccc1)c1ccccc1 | 10% | – | –
47 | O=C(NCc1ccc(F)cc1)N1CCN(S(=O)(=O)c2ccccc2F)CC1 | 19.8% | – | –
48 | CCc1cccc(NC(=O)C2CCCN2S(=O)(=O)c2ccc3c(c2)n(C)c(=O)c(=O)n3C)c1 (stereo not drawn) | -21.6% | 0.00517 µM [falling, full curve, poor fit] | –
49 | Cc1c(C(=O)O)sc2nc(-c3cccs3)cc(C(F)(F)F)c12 | 13.5% | 29.1 µM [rising, single point] | –
50 | O=C(NCCOC(=O)c1ccc(F)cc1)c1ccc(F)cc1 | 23.4% | 29.1 µM [rising, single point] | –
51 | O=C(Oc1ccc2ccc(=O)oc2c1)N1CCOCC1 | 2.59% | 3.66 µM [rising, single point] | –
52 | Cc1ccc(S(=O)(=O)CCC(=O)Nc2nnc(-c3ccc(F)cc3)o2)cc1 | 50.6% | – | 16.4 µM [rising, single point]
53 | Brc1ccc(CNCCCSc2ncccn2)cc1 | -4.7% | 2.31 µM [rising, partial curve, poor fit] | –
54 | OCCNc1ncnc2c1c(-c1ccccc1)c(-c1ccccc1)n2Cc1ccco1 | – | 0.58 µM [falling, single point] | –
55 | O=C(COC(=O)/C=C/c1cccc(C(F)(F)F)c1)NCc1ccccc1 | -7.51% | – | 0.259 µM [falling, full curve, poor fit]
56 | O=C(c1cc2c(s1)-c1ccccc1OC2)N1CCc2ccccc2C1 | – | 6.51 µM [rising, full curve] | –
57 | CC1CN(c2cc(=O)n(-c3cccc(Br)c3)c(=O)[nH]2)CC(C)O1 (stereo not drawn) | -82.9% | 5.17 µM [falling, full curve] | 25.9 µM [falling, partial curve, poor fit]
58 | CN1C(C(=O)NCC2CC2)CC2Cn3c(nc4cc(Cl)c(Cl)cc43)C21 (stereo not drawn) | 19.7% | – | –
59 | CCC(C)c1ccc2oc(-c3ccc(NC(=O)Cn4cnc5c(=O)n(C)c(=O)n(C)c54)cc3)nc2c1 (stereo not drawn) | – | 1.3 µM [rising, full curve] | 0.461 µM [rising, full curve]
60 | O=C(O)/C=C\C(=O)Nc1cc(O)ccc1[N+](=O)[O-] | 5.43% | – | –
61 | N#CC1(NC(=O)CSc2nncn2-c2ccccc2F)CCCC1 | -17.1% | 0.461 µM [falling, full curve, poor fit] | –
62 | COc1ccc(NC(=O)c2cc(S(=O)(=O)N3CCCCC3)c[nH]2)cc1Cl | 33.5% | 0.651 µM [falling, partial curve, poor fit] | 0.116 µM [rising, full curve, poor fit]
